62 molecules from PubChem BioAssay AID493014 (National Center for Advancing Translational Sciences (NCATS), 2011) can be followed below.

This is one part of the list. Shown are side measurements of this screen, not its main read-out; they come without a call. Compounds called inactive in the main read-out are mostly missing here. Words in brackets tell the shape of the fitted curve; partial curves, single points and poor fits give uncertain potencies.

The nature of the assay: qHTS Assay to Find Inhibitors of Chronic Active B-Cell Receptor Signaling. Conditions: ABC-DLBCL IkBa-CBG/CBR reporter, luminescence ratio (green luciferase fused to IkBa over red control in TMD8 lymphoma cells), 4 h. The procedure, abridged: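 Compounds up to 46 uM were incubated four hours with TMD8 cells whose green CBG68 luciferase is fused to IkappaBalpha; red CBR luminescence normalised the signal, and concentration-effect curves were fitted to fusion, red and ratio data.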
For orientation: In qHTS, concentration-response curves come from the screen itself.

Setting [1] is: measured here: CBR red luminescence, cell number.
Setting [2] is: measured here: IkBa-CBG green luminescence.

Usually AC50 stands for the concentration at which the activity in the assay is half-maximal. Turning to `CC1=C(C(=O)OC(C)C)C(C)NC(=O)N1` (configuration not stated), the AC50 under setting [1] was 20 µM [rising, partial curve, poor fit].

`CCOC(=O)c1csc(COc2ccccc2Cl)n1`: the AC50 under setting [1] was 0.0891 µM [rising, full curve, poor fit].

Consider `COc1ccc(C2C(C(=O)c3ccccc3)N3c4ccccc4C=CC3C2[N+](=O)[O-])cc1` (configuration not stated), for which, under setting [1], the AC50 is 6.31 µM [rising, single point].

For the molecule `CCOc1ccc(-c2[nH]nc3c2C(c2ccc(O)cc2)C(C#N)=C(N)O3)cc1` (configuration not stated), the half-maximal activity concentration (AC50) under setting [1] was 29.1 µM [falling, single point].

Consider `OC(COc1cccc2ccccc12)CN1CCN(c2ccccn2)CC1` (configuration not stated), for which, under setting [1], the AC50 is 25.1 µM [falling, single point].

`CC(=O)c1sc(NC(=O)CCN2C(=O)C3CC=CCC3C2=O)nc1-c1ccccc1` (configuration not stated): the half-maximal activity concentration (AC50) under setting [1] is 5.8 µM [falling, partial curve, poor fit].

Regarding `CCOc1ccccc1OCC(=O)Nc1ccc(S(=O)(=O)N(C)C)cc1`, under setting [1], the concentration at half-maximal activity (AC50) was 6.31 µM [falling, partial curve, poor fit].

In the case of `COCCn1nnnc1C(C(C)C)N(Cc1ccccc1)Cc1cc2cc(OC)ccc2[nH]c1=O` (configuration not stated), the half-maximal activity concentration (AC50) is 16.4 µM [rising, partial curve] under setting [1] and 14.6 µM [falling, partial curve] under setting [2].

Turning to `COc1cc(SC)ccc1C(=O)NNC(=O)c1cc(C)oc1C`, the AC50 under setting [1] was 16.4 µM [falling, partial curve].

For `CN1CCC(=NNC(=O)C(=O)Nc2ccccc2F)CC1`, the concentration at half-maximal activity (AC50) under setting [1] was 8.91 µM [falling, partial curve].

`Cc1cc(CNC(=O)c2ccc(C)c([N+](=O)[O-])c2)c2ccccc2n1`: the AC50 reads like this: under setting [1], 22.4 µM [rising, single point]; under setting [2], 22.4 µM [falling, single point].

`O=C(Nc1ccc2c(c1)OCCO2)NC1CCCCC1`: the AC50 under setting [1] was 25.9 µM [falling, partial curve, poor fit].

As for `Cc1cc(C)nc(N/N=C/c2c(C)oc3ccccc23)n1`, the AC50 under setting [1] is 14.1 µM [rising, partial curve, poor fit].

Regarding `N#Cc1ccccc1COC(=O)c1ccc2c(c1)OCO2`, the AC50 under setting [1] was 29.1 µM [rising, single point].

Take `Cc1ccsc1/C=N/NC(=O)c1ccncc1`: the AC50 under setting [2] is 22.4 µM [falling, single point].

`CCOC(=O)N/N=C/c1cn(Cc2ccc(F)cc2)c2ccccc12`: under setting [1], the AC50 was 35.5 µM [rising, single point].

`COc1ccc2c(c1)[C@H]1[C@H](CO2)[C@H](c2ccccc2)[C@]2(C)C(=O)Nc3cc(F)c(F)cc3C(=O)N12`: the AC50 under setting [1] is 2.91 µM [falling, full curve].

As for `O=C(NCc1ccccc1)C(=O)Nc1cccc(C(=O)O)c1`, the AC50 under setting [1] is 0.631 µM [falling, full curve].

In the case of `Fc1ccc(CN2CCCN(C(=S)Nc3ccc(F)cc3)CC2)cc1`, under setting [1], the AC50 was 25.1 µM [falling, single point].

Regarding `O=C(CCC(=O)Nc1cccc([N+](=O)[O-])c1)NCc1ccccc1`, the AC50 under setting [1] was 0.562 µM [rising, full curve, poor fit].

Turning to `COc1cc2cc(/C=C/C(=O)c3ccco3)c(Cl)nc2cc1OC`, under setting [1], the concentration at half-maximal activity (AC50) was 1.16 µM [falling, full curve, poor fit].

With `O=C(O)CC(NNC(=O)c1ccccc1)C(=O)Nc1ccc([N+](=O)[O-])cc1` (configuration not stated), under setting [1], the AC50 was 12.6 µM [falling, partial curve, poor fit].

For the molecule `Cc1cccc(N(C)S(=O)(=O)c2ccc(-c3cc(C)no3)s2)c1`, the concentration at half-maximal activity (AC50) is 7.08 µM [rising, full curve] under setting [1] and 8.91 µM [falling, partial curve] under setting [2].

For the molecule `COc1cc(OC)cc(C(=O)NCC(=O)N2CCC(C)CC2)c1`, the AC50 under setting [1] is 35.5 µM [falling, single point].

As to `Nc1nn(-c2ccccc2)c(N)c1N=Nc1ccccc1`, the AC50 under setting [1] is 8.2 µM [falling, partial curve].

As to `Cc1ccc(S(=O)(=O)N2CCOCC2)cc1NC(=O)CN1CCC(Cc2ccccc2)CC1`, the AC50 under setting [1] was 17.8 µM [falling, single point].

As for `COc1ccc(-c2nc3c4ccccc4n(CC(=O)Nc4ccc(C(C)C)cc4)c(=O)n3n2)cc1`, under setting [1], the concentration at half-maximal activity (AC50) was 10 µM [rising, partial curve, poor fit].

Consider `O=C(Nc1nccs1)c1ccc(-c2ccc(F)cc2)o1`, for which the AC50 under setting [1] is 14.1 µM [falling, single point].

`O=C(c1cccc(-c2nnc(-c3ccccc3)o2)c1)N1CCCCC1`: the AC50 under setting [1] is 4.11 µM [rising, single point].

With `CCn1nnc(NC(=O)c2cc3ccccc3o2)n1`, under setting [1], the half-maximal activity concentration (AC50) was 29.1 µM [falling, single point].

For `COC(=O)C1=C(C)NC(C)=C(C(=O)OC)C1c1ccc(-c2cccc([N+](=O)[O-])c2)o1`, the half-maximal activity concentration (AC50) runs as follows: under setting [1], 35.5 µM [falling, single point]; under setting [2], 35.5 µM [rising, partial curve, poor fit].

Regarding `Cc1nn(-c2nc3ccccc3[nH]2)c(=O)c2ccccc12`, the AC50 under setting [1] was 1.26 µM [falling, full curve].

Regarding `Cc1ccccc1OCC(O)Cn1c(=N)n(Cc2ccccc2)c2ccccc21` (configuration not stated), the AC50 under setting [1] was 15.8 µM [falling, single point].

Regarding `CC1Oc2ccccc2C(=O)N(CC(=O)c2ccc3c(c2)OCCO3)C1=O` (configuration not stated), the AC50 under setting [1] was 28.2 µM [falling, single point].

For `CC(=O)Nc1cccc(NC(=O)CSc2ncc(-c3ccc(Cl)cc3)n2Cc2ccco2)c1`, the AC50 under setting [1] was 25.9 µM [falling, partial curve].

`COc1cccc(C(=O)Nc2nc3ccccc3[nH]2)c1`: the AC50 under setting [1] is 3.26 µM [falling, full curve].

As for `Nc1nc(-c2ccc(Cl)cc2)nn1C(=O)c1ccco1`, the concentration at half-maximal activity (AC50) under setting [1] was 8.91 µM [falling, partial curve, poor fit].

Take `O=C(CCc1ccccc1)Nc1nc2c(F)cc(F)cc2s1`: under setting [1], the AC50 was 5.62 µM [falling, partial curve, poor fit].

Take `Cc1ccc(OCc2ccc(Br)cc2)c([N+](=O)[O-])n1`: the AC50 under setting [1] is 3.16 µM [rising, full curve, poor fit].

In the case of `N#Cc1c(NC(=O)CCC(=O)O)sc2c1CCCC2`, under setting [1], the half-maximal activity concentration (AC50) is 18.4 µM [falling, partial curve, poor fit].

Regarding `O=C(Cc1ccc(Cl)cc1)Nc1ncc([N+](=O)[O-])s1`, under setting [1], the AC50 is 5.62 µM [falling, partial curve].

For `CC(=O)Nc1nnc(COc2ccccc2)s1`, the concentration at half-maximal activity (AC50) under setting [1] was 35.5 µM [falling, single point].

On to `COc1ccccc1NC(=O)CN1CCN(CC(=O)Nc2ccccc2Cl)CC1`, for which the half-maximal activity concentration (AC50) under setting [1] is 3.98 µM [falling, partial curve, poor fit].

On to `COc1cc(O)c(C(CCN2CCCC2)c2cc(OC)c(OC)c(OC)c2)c(OC)c1` (configuration not stated), for which the AC50 under setting [1] is 3.55 µM [rising, single point].

Turning to `COCCn1c(C)cc(C(=O)COC(=O)c2ccc(-n3nc(C)cc3C)cc2)c1C`, the AC50 under setting [1] is 0.891 µM [rising, full curve, poor fit].

Consider `C=CCN(c1ccccc1)S(=O)(=O)c1cccc(C(=O)NCC(c2ccccc2OC)N2CCCC2)c1` (configuration not stated), for which the concentration at half-maximal activity (AC50) under setting [1] was 18.4 µM [falling, single point].

For the molecule `COc1cc(C(=O)OCC(=O)N2CCN(C(C)=O)CC2)ccc1OCC(C)C`, the AC50 under setting [1] was 3.66 µM [rising, single point].

For the molecule `COCCN(C(=O)Nc1ccccc1)c1ccccc1`, under setting [1], the AC50 was 25.9 µM [rising, single point].

As to `Cc1[nH]n(C2=NCCS2)c(=O)c1N=Nc1ccccc1`, the AC50 under setting [1] was 15.8 µM [falling, partial curve, poor fit].

Regarding `O=C(c1ccc([N+](=O)[O-])cc1)n1nc(-c2ccccc2)nc1NCc1ccc(F)cc1`, the AC50 under setting [1] was 1.16 µM [rising, full curve, poor fit].

As to `Cc1ccc(NS(=O)(=O)c2cc3c4c(cccc4c2)C(=O)NC3=O)cc1C`, the half-maximal activity concentration (AC50) under setting [1] is 8.91 µM [falling, partial curve, poor fit].

For the molecule `Cc1c(CCOC(=O)c2ccccc2)sc[n+]1CC(=O)c1ccc(Br)cc1`, the AC50 under setting [1] was 22.4 µM [falling, partial curve].

Regarding `COc1ccc(NS(=O)(=O)c2cccc(C(=O)NNC(=O)c3ccc(Br)o3)c2)cc1`, the AC50 under setting [1] was 10.3 µM [falling, partial curve, poor fit].

As for `CC/C(C)=N/NC(=S)NCc1ccco1`, under setting [1], the AC50 was 16.4 µM [falling, single point].

`CCOc1ccc(NC(=O)CN(C)C(=O)c2sc3ccccc3c2Cl)cc1OCC`: the AC50 under setting [1] is 2.06 µM [rising, full curve, poor fit].

On to `Cc1cccc(NC(=O)c2cc(-c3cc(C)c(C)cc3O)n[nH]2)c1`, for which the half-maximal activity concentration (AC50) under setting [1] is 7.94 µM [falling, full curve, poor fit].

For `CCC/C(O)=C1\C(=O)CC(C)(C)CC1=Nc1ccc(OC)cc1OC`, the concentration at half-maximal activity (AC50) under setting [1] was 35.5 µM [falling, single point].

For the molecule `COC(=O)C1CSC(C(=O)OC)N1C(=O)CN1CC(C)OC(C)C1` (configuration not stated), the AC50 under setting [1] is 11.6 µM [falling, partial curve, poor fit].

For the molecule `O=C(CSc1nc(=O)n(Cc2cccnc2)c2c1CCC2)Nc1cccc(Cl)c1`, the AC50 under setting [1] was 0.891 µM [falling, partial curve, poor fit] and the AC50 under setting [2] was 15.8 µM [rising, partial curve, poor fit].

Consider `Cc1ccc(Nc2nc(CSc3nnc(-c4cccs4)o3)cs2)cc1`, for which the AC50 under setting [1] was 3.66 µM [falling, single point].

With `O=C(COC(=O)c1cc([N+](=O)[O-])ccc1NCCO)c1ccccc1`, under setting [1], the AC50 was 18.4 µM [rising, partial curve, poor fit].

On to `CC(=O)c1ccc(NC(=O)c2cccs2)cc1`, for which the half-maximal activity concentration (AC50) under setting [1] is 13 µM [falling, partial curve, poor fit].
